Test results published in article PMC9562641.
These are yes or no findings as the source states them, for the method shown. For some assays here: In cells and extracts the contact can be indirect. Some results given as binding are weak or reduced against the parent protein; the word gives no strength.

By UniProt entry, the sequences of proteins in these tests, tags left out.
UniProt Q16539: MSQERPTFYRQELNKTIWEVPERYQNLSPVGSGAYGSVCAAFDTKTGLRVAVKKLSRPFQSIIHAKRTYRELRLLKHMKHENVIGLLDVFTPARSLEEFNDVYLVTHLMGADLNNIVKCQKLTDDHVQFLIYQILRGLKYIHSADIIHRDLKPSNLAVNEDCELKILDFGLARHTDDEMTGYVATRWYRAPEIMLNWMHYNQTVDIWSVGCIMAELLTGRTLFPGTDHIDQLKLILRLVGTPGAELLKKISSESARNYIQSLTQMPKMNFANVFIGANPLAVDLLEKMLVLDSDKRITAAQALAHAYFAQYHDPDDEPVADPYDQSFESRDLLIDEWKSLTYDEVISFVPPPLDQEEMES
UniProt P01106: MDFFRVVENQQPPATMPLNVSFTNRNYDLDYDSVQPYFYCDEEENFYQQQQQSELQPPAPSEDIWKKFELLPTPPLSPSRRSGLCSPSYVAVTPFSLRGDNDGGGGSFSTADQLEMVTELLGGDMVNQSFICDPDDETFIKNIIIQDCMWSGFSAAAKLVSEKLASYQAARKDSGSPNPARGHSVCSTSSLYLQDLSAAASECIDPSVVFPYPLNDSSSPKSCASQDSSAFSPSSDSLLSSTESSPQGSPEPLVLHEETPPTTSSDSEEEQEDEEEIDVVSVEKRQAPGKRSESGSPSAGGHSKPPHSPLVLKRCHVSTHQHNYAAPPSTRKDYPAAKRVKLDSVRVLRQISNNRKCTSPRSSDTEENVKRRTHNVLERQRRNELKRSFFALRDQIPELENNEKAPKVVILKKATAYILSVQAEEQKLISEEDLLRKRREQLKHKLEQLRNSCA

How the values were obtained:
[1] = target: GST-p38α human recombinant protein (human) (UniProt Q16539); assay: pull-down; GST-p38α incubated with c-MYC recombinant protein for 1 h at 4 °C on a rocking platform; precipitated with glutathione magnetic agarose beads; washed in buffer A (20 mM Tris-HCl pH 8, 150 mM KCl, 5 mM MgCl2, 0.2 mM EDTA, 10% glycerol, 0.1% NP-40, 1 mM DTT); immunoblot with anti-GST, anti-HIS and anti-c-MYC; both purified
[2] = target: endogenous p38α (human (endogenous in HT29)) (UniProt Q16539); assay: co-IP; HT29 whole-cell lysates immunoprecipitated with anti-p38α or anti-c-MYC, then immunoblotting; IgG as negative control; endogenous proteins

binding [1] | binding [2] | Substance
binds | – | c-MYC human recombinant protein (Abcam) (from UniProt P01106 1-454)
– | binds | endogenous c-MYC (from UniProt P01106 1-454)
